Patent US10288602B2, “Screening method, a kit, a method of treatment and a compound for use in a method of treatement” (ATROGI AB, priority 2013, dated 2019)

Tested on: Akt
Experiment: Western blot of Akt phosphorylation (T308, S473) in CHO GLUT4 cells
Assay type: cell-based, Chinese Hamster
Settings: calculated from Akt p-S473 % basal, FIG. 6B; for ratio r′ (Akt activity of agonist insulin vs compound) / ratio r″ (Akt activity of compound vs agonist insulin and basal): insulin as Aktagonist
Procedure: L6 myotubes (FIG. 5) and CHO GLUT4 cells (FIG. 6) in 12-well plates were used for western blotting. Cells were serum-starved overnight before experiment. Immunoblotting was performed as previously described (Nevzorova et al. 2006, […] et al. 2011, Nevzorova et al. 2002). Primary antibodies (Akt, phospho-Akt T308, phospho-Akt S473, AS 160, GLUT4, phospho-mTOR […], phospho-mTOR […], raptor, and rictor diluted 1:1000) were all from Cell Signaling Technology, Inc and were detected using a secondary antibody (horseradish peroxidase-linked anti-rabbit IgG, from Cell Signaling Technology, Inc) diluted 1:2000 and measured using enhanced chemiluminescence (ECL, Amersham Biosciences).

Compound | ratio r (Akt activity of compound vs reference) | ratio r′ (Akt activity of agonist insulin vs compound) | ratio r″ (Akt activity of compound vs agonist insulin and basal)
NC[C@H](O)c1ccc(O)c(O)c1 [noradrenaline] | 0.3 | 0.2 | 0.4
Br.CS(=O)(=O)Nc1c(O)ccc2c1CCCC2C1=NCCN1 (stereo not drawn) [A61603, N-[5-(4,5-dihydro-1H-imidazol-2yl)-2-hydroxy-5,6,7,8-tetrahydronaphthalen-1-yl] methanesulfonamide hydrobromide] | 0.35 | 0.2 | 0.5
Cc1cc(C(C)(C)C)c(O)c(C)c1CC1=NCCN1 [oxymetazoline] | 0.35 | 0.2 | 0.5
insulin | 0.7 | 0 | 1
